PubChem BioAssay AID493014 (National Center for Advancing Translational Sciences (NCATS), 2011)
Some of the results follow. These are further read-outs of the screen, such as a control signal, another cell line or another target. No call is given for them. Compounds called inactive in the main read-out are mostly missing here. Words in brackets tell the shape of the fitted curve; partial curves, single points and poor fits give uncertain potencies.

Test: qHTS Assay to Find Inhibitors of Chronic Active B-Cell Receptor Signaling
Conditions: ABC-DLBCL IkBa-CBG/CBR reporter, luminescence ratio (green luciferase fused to IkBa over red control in TMD8 lymphoma cells), 4 h
Method in brief: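 Concentration-response series (up to 46 uM) were applied to TMD8 dual-reporter cells for 4 h at 37C with doxycycline. Green/red ratio, after filter-overlap correction, defined %Activity; red signal alone was normalised to basal cells and zero luminescence.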

[1] = measured here: CBR red luminescence, cell number
[2] = measured here: IkBa-CBG green luminescence

## CC(=O)c1cccc(NC(=O)CN(c2ccccc2F)S(C)(=O)=O)c1
[1]
  AC50: 23.1 µM [falling, single point]

## O=C(CCCc1c[nH]c2ccccc12)Nc1ccc2ccccc2c1
[1]
  AC50: 29.1 µM [falling, single point]

## COC(=O)c1ccc(Nc2c([N+](=O)[O-])c(=O)oc3ccccc23)cc1
[1]
  AC50: 11.2 µM [falling, partial curve]

## CCCCOc1ccc(C(=O)Nc2ccc(C)cc2[N+](=O)[O-])cc1
[1]
  AC50: 0.82 µM [rising, full curve, poor fit]

## Cc1nc(N)sc1C(=O)N/N=C/c1c[nH]c2ccccc12
[1]
  AC50: 5.8 µM [falling, partial curve, poor fit]

## Cc1[nH]n(C(N)=S)c(=O)c1N=Nc1cccc(Cl)c1
[1]
  AC50: 35.5 µM [falling, single point]
[2]
  AC50: 0.631 µM [falling, partial curve, poor fit]

## CC(C)N1C(=O)S/C(=C/c2ccccc2OCc2ccc(C(=O)O)cc2)C1=O
[1]
  AC50: 10 µM [falling, partial curve, poor fit]

## COc1ccccc1N1CCN(C(=O)c2cc(=O)c3cc(C)ccc3o2)CC1
[1]
  AC50: 3.16 µM [rising, single point]

## COCCN(Cc1ccccc1)C(=S)Nc1ccc(Cl)cc1
[1]
  AC50: 6.31 µM [rising, partial curve, poor fit]

## C=C(C)C(=O)Nc1cccc(C2=NOC3(C2)C[C@@H](C(N)=O)N(C(=O)/C=C/C=C/C)C3)c1 (stereo partly specified)
[1]
  AC50: 35.5 µM [rising, single point]

## CCN(C(=O)c1cccs1)c1nnc(-c2ccncc2)s1
[1]
  AC50: 29.1 µM [rising, partial curve, poor fit]

## Cn1c(C(=O)N[C@@H](Cc2ccccc2)C(=O)NCCC(=O)O)cc2cc(Cl)ccc21
[1]
  AC50: 31.6 µM [falling, single point]

## O=C(NNc1cccc(Cl)n1)c1ccc(Cl)cc1Cl
[1]
  AC50: 1.12 µM [rising, full curve, poor fit]

## CN(Cc1ccccc1)c1ccc(N2C(=O)CCC2=O)cc1[N+](=O)[O-]
[1]
  AC50: 14.1 µM [rising, single point]

## CC(C)n1cnc2c(Nc3cccc(F)c3)nc(NCCO)nc21
[1]
  AC50: 8.91 µM [falling, partial curve]

## CC(=O)NC(=S)Nc1ccc(NC(=O)c2cccs2)cc1
[1]
  AC50: 20.6 µM [falling, single point]

## CCOC(=O)Nc1ccc2nc(Sc3ccc(Cl)cc3)sc2c1
[1]
  AC50: 35.5 µM [rising, single point]

## COc1cc(C(=O)NCc2cc(C)nc3ccccc23)cc(OC)c1OC
[1]
  AC50: 35.5 µM [rising, single point]
[2]
  AC50: 10 µM [falling, partial curve]

## CC1CC(C)(C)NC(C)c2ccccc21 (stereo unspecified)
[1]
  AC50: 35.5 µM [rising, single point]

## CC1CC(C)CN(C(=O)COC(=O)C2CCN(S(=O)(=O)c3ccc4c(c3)OCCO4)CC2)C1 (stereo unspecified)
[1]
  AC50: 29.1 µM [falling, single point]

## CC(C)CC(=O)N/C(N)=N/c1nc2ccccc2s1
[1]
  AC50: 20.6 µM [falling, partial curve]

## O=C(NN=C1CCCC1)c1n[nH]c2c1CCC2
[1]
  AC50: 7.94 µM [rising, partial curve]
[2]
  AC50: 4.47 µM [falling, full curve]

## Cc1cccc(N2CCN(C(=S)NC3CCCCC3)CC2)c1C
[1]
  AC50: 35.5 µM [falling, single point]

## NC(=O)NC[C@@H]1CC[C@@H](Cc2ccc(-c3ccccc3)cc2)O1
[2]
  AC50: 11.6 µM [falling, partial curve]

## S=c1[nH]nc(COc2ccc3c(c2)OCO3)n1-c1ccccc1
[1]
  AC50: 1.64 µM [falling, partial curve, poor fit]

## COc1nc(Oc2ccc(=O)n(C)n2)nc(N(C)C)n1
[1]
  AC50: 2.06 µM [falling, partial curve, poor fit]

## CSc1ccccc1N1CCN(C(=O)Nc2ccc3c(c2)NC(=O)CO3)CC1
[1]
  AC50: 8.91 µM [falling, partial curve, poor fit]

## N#CC1=C(SCC(=O)Nc2ccc(C(=O)O)cc2)NC(=O)CC1c1ccco1 (stereo unspecified)
[1]
  AC50: 22.4 µM [falling, partial curve, poor fit]

## COC(=O)c1ccc(C)c(NC(=O)CCNC(=O)c2ccc([N+](=O)[O-])cc2)c1
[1]
  AC50: 3.26 µM [rising, partial curve, poor fit]

## C[C@]12c3[nH]c4ccc(Cl)cc4c3CCN1C(=O)[C@@H](CC(=O)NCCCn1ccnc1)C[C@@H]2C(=O)N1CCCCC1
[1]
  AC50: 0.411 µM [rising, full curve, poor fit]

## CCN(CC)C(=O)CSc1nnc(-c2ccc(S(=O)(=O)N3CCCC3)cc2)o1
[1]
  AC50: 0.0146 µM [rising, full curve, poor fit]

## COc1ccc(C(=O)COC(=O)CNC(=O)C2CCCCC2)c(OC)c1
[1]
  AC50: 9.2 µM [rising, partial curve, poor fit]

## NC(=O)c1cc([N+](=O)[O-])ccc1NCCc1ccccc1
[1]
  AC50: 10 µM [falling, partial curve, poor fit]

## COc1ccc(CC(=O)N(Cc2cc3cc(OC)ccc3[nH]c2=O)C(C)C)cc1
[1]
  AC50: 2.06 µM [rising, partial curve, poor fit]

## O=C(COC(=O)CCc1c[nH]c2ccccc12)Nc1ccccc1
[1]
  AC50: 7.31 µM [rising, partial curve, poor fit]

## Cc1nn(-c2cccc(C(F)(F)F)c2)c(Cl)c1/C=N/Nc1cccc(C(=O)O)c1
[1]
  AC50: 16.4 µM [falling, single point]

## Cc1ccc(NC(=O)C(C)Sc2nnc(-c3cccnc3)n2-c2ccccc2)cc1 (stereo unspecified)
[1]
  AC50: 20.6 µM [falling, single point]

## CCn1cc(C(=O)NCCCN2CC(C)CC(C)C2)c(=O)c2cc(S(=O)(=O)N(C)C)ccc21 (stereo unspecified)
[1]
  AC50: 20.6 µM [rising, partial curve, poor fit]

## COCC(=O)N1CCC(n2nnc3cc(C(F)(F)F)ccc32)CC1
[1]
  AC50: 11.2 µM [rising, partial curve]

## COc1ccc(C(C(=O)NC2CCCCC2)N(C(=O)c2ccco2)c2ccccc2C(C)=O)cc1OC (stereo unspecified)
[1]
  AC50: 4.47 µM [falling, partial curve, poor fit]

## Cc1cc(C)n(CC(=O)n2nc(C)cc2C)n1
[1]
  AC50: 0.259 µM [rising, full curve, poor fit]

## CCOC(=O)CSc1cc(-c2ccccc2)nc2ncnn12
[1]
  AC50: 7.94 µM [falling, partial curve, poor fit]

## COc1cccc(C(=O)Nc2ncc3c(n2)CC(C)CC3=O)c1 (stereo unspecified)
[1]
  AC50: 2.91 µM [falling, full curve]

## Cc1ccc(NNC(=O)c2cc(C)on2)c(C)c1
[1]
  AC50: 35.5 µM [rising, single point]

## COc1ccc(C(=O)N2CCN(c3cccc(C)c3C)CC2)cc1S(=O)(=O)NC1CC1
[1]
  AC50: 25.9 µM [falling, partial curve, poor fit]

## O=C(Nc1cccc(NC(=O)c2ccccc2)n1)c1ccccc1
[1]
  AC50: 1.41 µM [rising, full curve, poor fit]

## COc1cccc(/C=N/NC(=O)c2ccc3nc[nH]c3c2)c1
[1]
  AC50: 11.2 µM [falling, single point]

## Cn1c(SCC(=O)NC(c2ccccc2)c2ccccc2)nnc1-c1cccs1
[1]
  AC50: 23.1 µM [falling, single point]

## Cc1ccccc1NC(=O)c1c(-c2ccccc2)noc1C
[1]
  AC50: 29.1 µM [rising, single point]

## CNc1ccc(Br)cc(C(=O)/C=C/c2cccc(OC)c2OC)c1=O
[1]
  AC50: 3.26 µM [falling, full curve, poor fit]

## O=C(Nc1ccccc1)N1CCn2c1nc1ccccc12
[1]
  AC50: 0.206 µM [falling, full curve, poor fit]

## O=C(O)c1ccc(Cl)cc1Nc1nc2cc(Cl)ccc2o1
[1]
  AC50: 3.16 µM [rising, single point]

## Cc1ccc2oc(=O)c3cnn(CC(=O)N(Cc4ccco4)C4CCCCC4)c3c2c1
[1]
  AC50: 2.59 µM [falling, partial curve, poor fit]

## O=C(c1ccc(Cl)c(Cl)c1)N1CCC(=O)N(C(COCc2ccc(Cl)cc2)Cc2ccccc2)CC1 (stereo unspecified)
[1]
  AC50: 23.1 µM [falling, single point]

## CC(=O)N1N=C(c2cccs2)CC1c1ccc(Br)cc1 (stereo unspecified)
[1]
  AC50: 6.31 µM [rising, single point]

## O=C(COc1ccc2ccccc2c1)N1CCCC1
[1]
  AC50: 29.1 µM [falling, single point]

## C=CCOC(=O)c1ccc(-n2cnc(C)n2)nc1
[1]
  AC50: 10 µM [rising, partial curve, poor fit]

## O=C1c2ccccc2C(Nc2ccccc2)N1c1ccc(Cl)cn1 (stereo unspecified)
[1]
  AC50: 25.9 µM [rising, partial curve, poor fit]

## C[C@H](NC(=O)c1ccccc1Cl)C(=O)OCCOc1cccc(Cl)c1
[1]
  AC50: 14.1 µM [rising, single point]

## O=C(NC1CCCCC1)c1cc(-n2cnnc2)ccc1Cl
[1]
  AC50: 35.5 µM [rising, single point]

## CC(=O)Nc1ccc(NC(=O)COC(=O)Cc2c[nH]c3ccccc23)cc1
[1]
  AC50: 6.51 µM [rising, single point]

## O=C(COc1ccc(-n2cnnn2)cc1)Nc1ccc(F)c(Cl)c1
[1]
  AC50: 1.84 µM [rising, partial curve, poor fit]

## S=c1[nH]nc(Cc2ccc(Cl)cc2)o1
[1]
  AC50: 12.6 µM [rising, partial curve]
